Test results as given in US20110257732A1, “STENTS HAVING CONTROLLED ELUTION” (Micell Technologies, Inc., priority 2010, published 2011).
At least one structure is not confirmed: it was looked up by name or label, or the drawing left a doubt.

Assay: In vitro rapamycin elution, 1:1 ethanol (95%)/phosphate buffer saline, UV-Vis 278 nm (Example 11e)
Format: physicochemical
Details: Example 30 PDPDP sirolimus/50:50 PLGA coated stents, 50% ethanol/PBS pH 7.4, 37 C, agitated

SMILES: CO[C@H]1C[C@@H]2CC[C@@H](C)[C@@](O)(O2)C(=O)C(=O)N2CCCC[C@H]2C(=O)O[C@H]([C@H](C)C[C@@H]2CC[C@@H](O)[C@H](OC)C2)CC(=O)[C@H](C)/C=C(\C)[C@@H](O)[C@@H](OC)C(=O)[C@H](C)C[C@H](C)/C=C/C=C/C=C/1C [rapamycin]
- % rapamycin eluted by in-vitro testing, Max (1 h (day 0)): 14.3%
- % rapamycin eluted by in-vitro testing, Mean (1 h (day 0)): 23.1%
- % rapamycin eluted by in-vitro testing, Min (1 h (day 0)): 35.2%
- % rapamycin eluted by in-vitro testing, Max (1 d): 20.1%
- % rapamycin eluted by in-vitro testing, Mean (1 d): 29.7%
- % rapamycin eluted by in-vitro testing, Min (1 d): 39.7%
- % rapamycin eluted by in-vitro testing, Max (2 d): 22.9%
- % rapamycin eluted by in-vitro testing, Mean (2 d): 33.0%
- % rapamycin eluted by in-vitro testing, Min (2 d): 41.9%
- % rapamycin eluted by in-vitro testing, Max (3 d): 25.5%
- % rapamycin eluted by in-vitro testing, Mean (3 d): 37.0%
- % rapamycin eluted by in-vitro testing, Min (3 d): 48.2%
- % rapamycin eluted by in-vitro testing, Max (4 d): 31.5%
- % rapamycin eluted by in-vitro testing, Mean (4 d): 42.1%
- % rapamycin eluted by in-vitro testing, Min (4 d): 53.6%
- % rapamycin eluted by in-vitro testing, Max (5 d): 35.3%
- % rapamycin eluted by in-vitro testing, Mean (5 d): 47.4%
- % rapamycin eluted by in-vitro testing, Min (5 d): 62.7%
- % rapamycin eluted by in-vitro testing, Max (7 d): 41.7%
- % rapamycin eluted by in-vitro testing, Mean (7 d): 56.6%
- % rapamycin eluted by in-vitro testing, Min (7 d): 72.3%
- % rapamycin eluted by in-vitro testing, Max (9 d): 49.5%
- % rapamycin eluted by in-vitro testing, Mean (9 d): 65.5%
- % rapamycin eluted by in-vitro testing, Min (9 d): 81.8%
- % rapamycin eluted by in-vitro testing, Max (11 d): 57.1%
- % rapamycin eluted by in-vitro testing, Mean (11 d): 73.8%
- % rapamycin eluted by in-vitro testing, Min (11 d): 89.4%
- % rapamycin eluted by in-vitro testing, Max (15 d): 75.6%
- % rapamycin eluted by in-vitro testing, Mean (15 d): 91.2%
- % rapamycin eluted by in-vitro testing, Min (15 d): 101.1%
